Test results reported in paper PMC9789960.
These are yes or no findings as the source states them, for the method shown. In cells and extracts the contact can be indirect. Some entries that bind do so weakly or less than the wild type.

By UniProt entry, the sequences of proteins in these tests, tags left out. Residues count along the entry.
UniProt Q9NZQ7, residues 19-290: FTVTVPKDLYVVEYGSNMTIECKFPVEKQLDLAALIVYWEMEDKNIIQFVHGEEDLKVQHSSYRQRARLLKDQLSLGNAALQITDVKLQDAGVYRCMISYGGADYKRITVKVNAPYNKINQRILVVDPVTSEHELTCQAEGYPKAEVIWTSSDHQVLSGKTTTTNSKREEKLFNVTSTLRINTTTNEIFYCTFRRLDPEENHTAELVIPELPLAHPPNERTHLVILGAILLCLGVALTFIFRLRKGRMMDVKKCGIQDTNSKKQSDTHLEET

T1: ZDHHC3 (human (endogenous in U251)) (UniProt Q9NYG2)
T1 sequence: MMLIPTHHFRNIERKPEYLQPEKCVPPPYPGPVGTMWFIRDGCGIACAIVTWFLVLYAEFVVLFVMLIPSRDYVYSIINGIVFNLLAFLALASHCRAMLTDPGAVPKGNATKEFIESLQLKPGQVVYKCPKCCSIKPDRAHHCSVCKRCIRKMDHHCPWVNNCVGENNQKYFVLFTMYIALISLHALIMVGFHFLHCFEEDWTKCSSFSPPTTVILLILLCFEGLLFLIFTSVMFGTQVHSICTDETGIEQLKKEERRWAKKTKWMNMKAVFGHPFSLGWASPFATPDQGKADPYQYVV

B1: ZDHHC3 (enzyme, UniProt Q9NYG2 1-299)
chain: T1 sequence

How the values were obtained:
[1] = target: T1, ZDHHC3 (human (endogenous in U251)); test: co-IP; U251 cell lysates incubated with antibody-coupled Dynabeads overnight at 4 °C; ZDHHC3 or PD-L1 as bait; western blot
[2] = target: programmed cell death ligand 1 (PD-L1) (human (endogenous in U251)) (UniProt Q9NZQ7); test: as above

| Molecule | binding [1] | binding [2] |
| --- | --- | --- |
| programmed cell death ligand 1 (PD-L1) (from UniProt Q9NZQ7 19-290) | binds | – |
| B1 | – | binds |
